According to article PMC12367601:
Results are given in words; binding and its absence hold for the method and conditions named. Binding seen in cells or lysates may run through a third protein. Some entries that bind do so weakly or less than the wild type.

Sequences of proteins named here, by UniProt entry; tags and fusion partners are left off.
UniProt Q93074: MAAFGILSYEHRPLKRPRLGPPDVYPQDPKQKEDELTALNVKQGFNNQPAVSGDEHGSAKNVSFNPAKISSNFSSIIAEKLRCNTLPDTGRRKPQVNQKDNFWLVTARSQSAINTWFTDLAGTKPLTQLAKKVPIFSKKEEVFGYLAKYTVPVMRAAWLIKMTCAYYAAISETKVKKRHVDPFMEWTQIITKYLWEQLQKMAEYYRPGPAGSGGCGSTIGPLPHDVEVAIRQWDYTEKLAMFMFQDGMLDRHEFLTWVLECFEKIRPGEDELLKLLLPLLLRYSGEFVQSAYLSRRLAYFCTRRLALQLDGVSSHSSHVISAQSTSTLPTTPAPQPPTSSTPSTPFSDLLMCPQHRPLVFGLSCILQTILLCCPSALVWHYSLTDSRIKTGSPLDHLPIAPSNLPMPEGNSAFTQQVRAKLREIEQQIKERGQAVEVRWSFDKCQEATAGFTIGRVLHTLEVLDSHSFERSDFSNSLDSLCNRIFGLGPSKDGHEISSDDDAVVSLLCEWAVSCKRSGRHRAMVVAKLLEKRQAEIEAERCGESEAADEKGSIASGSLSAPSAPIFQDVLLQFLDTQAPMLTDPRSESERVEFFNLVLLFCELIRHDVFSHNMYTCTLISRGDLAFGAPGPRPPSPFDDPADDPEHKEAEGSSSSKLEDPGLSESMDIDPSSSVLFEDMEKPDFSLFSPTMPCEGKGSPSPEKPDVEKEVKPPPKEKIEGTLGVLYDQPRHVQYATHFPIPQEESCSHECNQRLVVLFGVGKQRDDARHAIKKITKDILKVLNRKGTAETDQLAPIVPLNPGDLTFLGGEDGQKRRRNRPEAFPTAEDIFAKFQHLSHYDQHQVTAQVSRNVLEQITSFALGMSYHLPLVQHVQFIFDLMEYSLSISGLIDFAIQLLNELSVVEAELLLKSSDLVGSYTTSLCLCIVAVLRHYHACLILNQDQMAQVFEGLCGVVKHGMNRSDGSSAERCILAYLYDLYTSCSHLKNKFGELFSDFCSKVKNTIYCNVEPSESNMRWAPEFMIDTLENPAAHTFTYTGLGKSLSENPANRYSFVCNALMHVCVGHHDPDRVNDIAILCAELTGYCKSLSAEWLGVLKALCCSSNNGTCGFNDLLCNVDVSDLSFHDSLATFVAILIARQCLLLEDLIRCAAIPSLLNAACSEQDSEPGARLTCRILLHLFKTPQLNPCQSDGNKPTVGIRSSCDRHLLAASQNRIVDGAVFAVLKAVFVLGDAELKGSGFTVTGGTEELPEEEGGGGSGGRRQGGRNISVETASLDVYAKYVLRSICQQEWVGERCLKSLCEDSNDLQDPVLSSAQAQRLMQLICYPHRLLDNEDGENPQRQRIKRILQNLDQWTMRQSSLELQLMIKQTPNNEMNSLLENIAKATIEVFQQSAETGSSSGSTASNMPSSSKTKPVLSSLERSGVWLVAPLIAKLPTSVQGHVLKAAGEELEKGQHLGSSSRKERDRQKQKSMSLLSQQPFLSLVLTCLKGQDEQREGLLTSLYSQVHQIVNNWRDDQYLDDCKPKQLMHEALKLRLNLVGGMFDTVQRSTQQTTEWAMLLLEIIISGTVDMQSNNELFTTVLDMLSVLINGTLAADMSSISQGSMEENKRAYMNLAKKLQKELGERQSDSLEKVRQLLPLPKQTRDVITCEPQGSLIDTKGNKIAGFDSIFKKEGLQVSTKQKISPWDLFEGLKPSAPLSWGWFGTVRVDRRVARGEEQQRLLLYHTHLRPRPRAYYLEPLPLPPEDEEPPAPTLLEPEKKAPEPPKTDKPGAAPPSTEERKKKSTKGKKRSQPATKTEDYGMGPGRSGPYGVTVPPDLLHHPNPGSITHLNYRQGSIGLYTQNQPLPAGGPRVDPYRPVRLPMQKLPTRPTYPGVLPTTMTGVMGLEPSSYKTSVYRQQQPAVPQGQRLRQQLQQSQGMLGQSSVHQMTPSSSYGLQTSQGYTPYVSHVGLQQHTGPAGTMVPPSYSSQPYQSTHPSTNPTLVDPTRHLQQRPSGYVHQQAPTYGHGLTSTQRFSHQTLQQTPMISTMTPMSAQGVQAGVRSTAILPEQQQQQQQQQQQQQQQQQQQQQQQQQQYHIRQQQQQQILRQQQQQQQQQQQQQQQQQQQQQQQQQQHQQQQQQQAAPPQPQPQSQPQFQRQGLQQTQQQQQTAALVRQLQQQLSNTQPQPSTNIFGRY
UniProt P46937: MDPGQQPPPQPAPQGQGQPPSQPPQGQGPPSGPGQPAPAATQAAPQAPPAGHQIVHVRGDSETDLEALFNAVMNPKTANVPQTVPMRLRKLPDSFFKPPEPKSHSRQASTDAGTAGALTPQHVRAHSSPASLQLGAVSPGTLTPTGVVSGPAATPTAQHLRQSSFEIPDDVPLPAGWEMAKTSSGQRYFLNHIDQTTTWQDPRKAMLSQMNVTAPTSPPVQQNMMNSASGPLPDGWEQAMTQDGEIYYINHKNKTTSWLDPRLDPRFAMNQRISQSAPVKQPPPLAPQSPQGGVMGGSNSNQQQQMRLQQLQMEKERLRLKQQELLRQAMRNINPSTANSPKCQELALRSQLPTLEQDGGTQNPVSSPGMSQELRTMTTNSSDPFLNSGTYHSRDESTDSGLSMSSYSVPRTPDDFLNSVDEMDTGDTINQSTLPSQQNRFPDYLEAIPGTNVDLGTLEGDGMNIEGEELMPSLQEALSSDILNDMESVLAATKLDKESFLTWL

Target: Mediator complex subunit 12 (MED12) (human (endogenous in NSCLC cell lines)) (UniProt Q93074)
Test: co-IP; lysates from the cell lines; 1 mg lysate in Pierce IP lysis buffer, anti-MED12 antibody (1:100) with Protein A/G PLUS-Agarose at 4 °C, four washes; immunoblot with anti-YAP

binding: binds
Substance: YAP (from UniProt P46937 1-504)
